Patent publication US10857209B2, “Lysosomal acid lipase and PPAR gamma ligands as immune therapies for cancer treatment” (Indiana University Research and Technology Corporation, priority 2016, dated 2020)
For at least one compound, name, drawing or mass did not settle the structure.

Assays:
[1] = tested on: HD1B cells; experiment: ROS measurement by flow cytometry in HD1A and HD1B cells; format: cell-based, mouse; conditions: 40 nM, 60 minutes
Description: HD1A and HD1B cells were treated with solvent, rapamycin (40 nM), or PP242 (40 nM) for 60 minutes. Cells were washed and stained with 2 μM of 2′,7′-dichlorodihydrofluorescein diacetate stained (DCFDA, Invitrogen) which is nonfluorescent until the acetate group is removed by intracellular esterases and oxidation occurs within the cell (Invitrogen). The incubation was at 37° C. for 20 minutes, followed by washing with cold PBS. The ROS level was measured by flow cytometry.

[2] = tested on: HD1B cells; experiment: Mitochondrial membrane potential assay (JC1) in HD1A and HD1B cells; format: cell-based, mouse; conditions: mTOR inhibitor 40 nM, 1 hour
Description: HD1A and HD1B cells were grown in 24-well plates to the desired confluence. Cells were treated with solvent (DMSO, 0.1%), rapamycin (40 nM), or PP242 (40 nM) for 1 hour, or NAC (100 μM, Sigma-Aldrich), or Tempol (10 μM, Sigma-Aldrich) overnight. Treated cells were replaced with the pre-warmed (37° C.) medium containing JC1 (5 μM, Molecular Probes) for 1 hour. Labeled cells were replaced with fresh medium and examined under the Nikon inverted fluorescence microscope.

**Q.** How did the ROS production [1] turn out when `CO[C@H]1C[C@@H]2CC[C@@H](C)[C@@](O)(O2)C(=O)C(=O)N2CCCC[C@H]2C(=O)O[C@H]([C@H](C)C[C@@H]2CC[C@@H](O)[C@H](OC)C2)CC(=O)[C@H](C)/C=C(\C)[C@@H](O)[C@@H](OC)C(=O)[C@H](C)C[C@H](C)/C=C/C=C/C=C/1C` [rapamycin] was run?
**A.** decreased ROS production

**Q.** And the “mitochondrial membrane potential (JC1 staining)” value [2]?
**A.** reversed the damaged mitochondrial membrane potential
